Reference: PubChem BioAssay AID652272 (Drosophila RNAi Screening Center, 2013)

Screen: 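Genome-wide knock-down search for components of Hedgehog signalling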 (primary screen)
Cell system: Drosophila clone 8 (Cl8) cells
Knock-down reagent: long dsRNA against Drosophila genes
Detection: 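Firefly light from a Hedgehog-responsive ptc promoter reporter and Renilla reference light, both read on a plate reader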
Scale: firefly Hh reporter signal: higher = more ptc reporter light; Renilla reference signal: higher = more Renilla control light
Active means: 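Hit when the z-score averaged over two replicates is under -2 or over +3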
Calls: active = hit: reporter lowered or raised; inactive = not a hit
The screen tested about 21,000 reagents; shown is a random part of those that have a named target and a result. Over the whole deposit, 503 (2.4%) were called active. 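Raw plate light values, not normalised; calls rest on replicate z-scores that were not deposited; hits include reporter decreases as well as increases.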 Entries without a mark were called inactive. No sequences are given here. Not stated in the record: the amount of reagent, the time to read-out.

CG31924 [DRSC00689] → firefly Hh reporter signal, replicate 1: 1.16e5; firefly Hh reporter signal, replicate 2: 99064; Renilla reference signal, replicate 1: 2953; Renilla reference signal, replicate 2: 2450
PlexA [DRSC17220] → firefly Hh reporter signal, replicate 1: 83475; firefly Hh reporter signal, replicate 2: 68889; Renilla reference signal, replicate 1: 1987; Renilla reference signal, replicate 2: 1894
CG16734 [DRSC15143] → firefly Hh reporter signal, replicate 1: 72266; firefly Hh reporter signal, replicate 2: 62344; Renilla reference signal, replicate 1: 2728; Renilla reference signal, replicate 2: 1714
CG6409 [DRSC10630] → firefly Hh reporter signal, replicate 1: 1.64e5; firefly Hh reporter signal, replicate 2: 7.50e5; firefly Hh reporter signal, replicate 3: 1.33e5; Renilla reference signal, replicate 1: 6806; Renilla reference signal, replicate 2: 41480
H2.0 [DRSC03340] → firefly Hh reporter signal, replicate 1: 1.89e5; firefly Hh reporter signal, replicate 2: 4.97e5; firefly Hh reporter signal, replicate 3: 1.20e5; Renilla reference signal, replicate 1: 4724; Renilla reference signal, replicate 2: 26979
Bgb [DRSC08148] → firefly Hh reporter signal, replicate 1: 1.36e5; firefly Hh reporter signal, replicate 2: 80092; Renilla reference signal, replicate 1: 5703; Renilla reference signal, replicate 2: 3376
CG42816 [DRSC11230] → firefly Hh reporter signal, replicate 1: 94835; Renilla reference signal, replicate 1: 4256; Renilla reference signal, replicate 2: 2708
PolZ1 [DRSC06800] → firefly Hh reporter signal, replicate 1: 88516; firefly Hh reporter signal, replicate 2: 76169; Renilla reference signal, replicate 1: 3890; Renilla reference signal, replicate 2: 3171
CNT1 [DRSC06082] → firefly Hh reporter signal, replicate 1: 79996; firefly Hh reporter signal, replicate 2: 40260; Renilla reference signal, replicate 1: 1721; Renilla reference signal, replicate 2: 3882
l(1)G0196 [DRSC20591] → firefly Hh reporter signal, replicate 1: 4.83e5; firefly Hh reporter signal, replicate 2: 1.95e5; Renilla reference signal, replicate 1: 29606; Renilla reference signal, replicate 2: 4345
l(1)G0196 [DRSC20629] → firefly Hh reporter signal, replicate 1: 90173; firefly Hh reporter signal, replicate 2: 1.81e5; Renilla reference signal, replicate 1: 2960; Renilla reference signal, replicate 2: 9414
CG32052 [DRSC10966] → firefly Hh reporter signal, replicate 1: 40577; firefly Hh reporter signal, replicate 2: 61640; firefly Hh reporter signal, replicate 3: 47332; Renilla reference signal, replicate 1: 6464; Renilla reference signal, replicate 2: 3072

2 neighbouring entries from above, quoted:
Bgb [DRSC08148] → firefly Hh reporter signal, replicate 1: 1.36e5; firefly Hh reporter signal, replicate 2: 80092; Renilla reference signal, replicate 1: 5703; Renilla reference signal, replicate 2: 3376
CG42816 [DRSC11230] → firefly Hh reporter signal, replicate 1: 94835; Renilla reference signal, replicate 1: 4256; Renilla reference signal, replicate 2: 2708
